Assay results from PubChem BioAssay AID651789 (National Center for Advancing Translational Sciences (NCATS), 2012).
The shares of active, inactive and inconclusive entries below differ from those in the screen. A potency beside an inconclusive call is a rough fit, not a confirmed value. Calls of active or inactive are those of the source. The call rests on the fitted dose curve; in most records, active means well fitted inhibition curve with a large enough effect; inconclusive means small, poorly fitted or top-dose-only effect; inactive means no such curve, though single readings can be large or run the other way.

Assay: Acumen qHTS Assay for Inhibitors of the mTORC1 Signaling Pathway in WT MEF Cells: Hit Validation; further: nearly all actives have a fitted effect of over 60% in size
Conditions: Acumen imaging; series mostly up to 37.3 µM
In short: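 Read-out is immunofluorescent phospho-rpS6 (Ser235/236) normalised to PI-stained cell number, reported as % active cells using a 7.5 nM rapamycin threshold. Cells: WT or Tsc2-/-, p53-/- MEFs, compound-exposed 24 h at 37C; PI count also tracks viability.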
Potency means the concentration at half of the fitted maximal effect.

SMILES	Potency
CCCCS(=O)(=O)c1nc(-c2ccc(Br)cc2)cc(-c2ccccc2)c1C#N	active: 5.21 µM
Cc1c(C(=O)OC2CCC(C)CC2)[nH]c2c1C(=O)CC(c1ccccc1Cl)C2 (configuration not stated)	inconclusive: 26.1 µM [inhibitor, single point]
CCOc1ccc(C(=O)/C=C/c2cn(CC(O)CN3CCCCCC3)c3ccccc23)cc1 (configuration not stated)	inconclusive: 18.5 µM [inhibitor, single point]
CN(c1ccccc1)S(=O)(=O)c1ccc(NC(=O)c2nc(S(C)(=O)=O)ncc2Cl)cc1	inconclusive: 0.521 µM [inhibitor, full curve]
CC1CCN(S(=O)(=O)c2ccc3nc(Nc4cccc(C(F)(F)F)c4)ccc3c2)CC1	inconclusive: 13.1 µM [inhibitor, single point]
COc1cccc(C(=O)CC2(O)C(=O)N(Cc3ccccc3)c3ccccc32)c1 (configuration not stated)	inconclusive: 6.56 µM [inhibitor, partial curve]
CCOc1ccc(-n2nc3ccc(NC(=O)c4ccc(-c5cccc(Cl)c5)o4)cc3n2)cc1	inconclusive: 18.5 µM [inhibitor, single point]
